Reference: the supplement of paper PMC4604168 (melanoma cell lines)
This is one part of the list. Single values are uncertain, as repeats are few or missing.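 Cells were imaged in 1,536-well plates, and nuclei stained with an antibody against cleaved PARP were counted against all DNA-stained nuclei to give the apoptosis fraction. Screening doses were chosen to leave most cells alive, and resting and induced cleaved-PARP levels differ strongly between cell lines.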

Experiments:
Experiment in all cases: cleaved PARP positive nuclei fraction relative to DMSO control; melanoma cells; higher = more apoptosis
Conditions in all cases: library dose: low library concentration; 72 h
501Mel = tested on: 501Mel
A101D = tested on: A101D
A2058 = tested on: A2058
C32 = tested on: C32
CBRC008 = tested on: CBRC008 (line from a melanoma biopsy)
CBRC014 = tested on: CBRC014 (line from a melanoma biopsy)
CBRC016 = tested on: CBRC016 (line from a melanoma biopsy)
CBRC017 = tested on: CBRC017 (line from a melanoma biopsy)
COLO792 = tested on: COLO792
COLO800 = tested on: COLO800
COLO829 = tested on: COLO829
G361 = tested on: G361
IPC-298 = tested on: IPC-298
IST-MEL1 = tested on: IST-MEL1
LB2518-MEL = tested on: LB2518-MEL
LOXIMVI = tested on: LOXIMVI

In the case of `NC1(c2ccc(-c3nc4ccn5c(=O)[nH]nc5c4cc3-c3ccccc3)cc2)CCC1` + COC(=O)c1sccc1S(=O)(=O)Nc1ccc(Nc2ccccc2)cc1OC [GSK0660] (first compound 0.4 µM, partner dose 1 µM), the “cleaved PARP positive nuclei fraction” value (501Mel) is reported as 81.1%, the “cleaved PARP positive nuclei fraction” value (A101D) is reported as 15.5% and the “cleaved PARP positive nuclei fraction” value (A2058) is reported as 86.9%. For the same compound, the “cleaved PARP positive nuclei fraction” value (C32) was 47.5%, the “cleaved PARP positive nuclei fraction” value (CBRC008) was 62.2% and the “cleaved PARP positive nuclei fraction” value (CBRC014) was 75.9%. The “cleaved PARP positive nuclei fraction” value (CBRC016) was 58.4%, the “cleaved PARP positive nuclei fraction” value (CBRC017) was 74.2% and the “cleaved PARP positive nuclei fraction” value (COLO792) was 223%. For the same compound, the “cleaved PARP positive nuclei fraction” value (COLO800) was 74.7%, the “cleaved PARP positive nuclei fraction” value (COLO829) was 95.8% and the “cleaved PARP positive nuclei fraction” value (G361) was 65.7%. For the same compound, the “cleaved PARP positive nuclei fraction” value (IPC-298) was 143%, the “cleaved PARP positive nuclei fraction” value (IST-MEL1) was 138% and the “cleaved PARP positive nuclei fraction” value (LB2518-MEL) was 78.7%. For the same compound, the “cleaved PARP positive nuclei fraction” value (LOXIMVI) was 176%.

With `CC1(C)CCC(c2ccc(Cl)cc2)=C(CN2CCN(c3ccc(C(=O)NS(=O)(=O)c4ccc(N[C@H](CCN5CCOCC5)CSc5ccccc5)c(S(=O)(=O)C(F)(F)F)c4)cc3)CC2)C1` + Cn1cc(/C=C2\C(=O)Nc3cccnc32)c2ccccc21 [GW441756] (first compound 0.4 µM, partner dose 0.4 µM) the “cleaved PARP positive nuclei fraction” value (501Mel) was 78%, the “cleaved PARP positive nuclei fraction” value (A101D) was 28.9% and the “cleaved PARP positive nuclei fraction” value (A2058) was 68.5%. For the same compound, the “cleaved PARP positive nuclei fraction” value (C32) was 220%, the “cleaved PARP positive nuclei fraction” value (CBRC008) was 683% and the “cleaved PARP positive nuclei fraction” value (CBRC014) was 287%. The “cleaved PARP positive nuclei fraction” value (CBRC016) was 301%, the “cleaved PARP positive nuclei fraction” value (CBRC017) was 160% and the “cleaved PARP positive nuclei fraction” value (COLO792) was 315%. For the same compound, the “cleaved PARP positive nuclei fraction” value (COLO800) was 63.5%, the “cleaved PARP positive nuclei fraction” value (COLO829) was 49.8% and the “cleaved PARP positive nuclei fraction” value (G361) was 168%. The “cleaved PARP positive nuclei fraction” value (IPC-298) was 203%, the “cleaved PARP positive nuclei fraction” value (IST-MEL1) was 98.1% and the “cleaved PARP positive nuclei fraction” value (LB2518-MEL) was 169%. The “cleaved PARP positive nuclei fraction” value (LOXIMVI) was 151%.

`CC(=O)O[C@@]12CO[C@@H]1C[C@H](O)[C@@]1(C)C(=O)[C@H](O)C3=C(C)[C@@H](OC(=O)[C@H](O)[C@@H](NC(=O)OC(C)(C)C)c4ccccc4)C[C@@](O)([C@@H](OC(=O)c4ccccc4)[C@H]21)C3(C)C` [Docetaxel] + CC(C)CCN1c2nc(Nc3cc(F)c(O)c(F)c3)ncc2N(C)C(=O)C1C [BID1870] (first compound 0.0001 µM, partner dose 0.2 µM) was tested, and the “cleaved PARP positive nuclei fraction” value (501Mel) was 105%, the “cleaved PARP positive nuclei fraction” value (A101D) was 15.4% and the “cleaved PARP positive nuclei fraction” value (A2058) was 3600%. The “cleaved PARP positive nuclei fraction” value (C32) was 390%, the “cleaved PARP positive nuclei fraction” value (CBRC008) was 645% and the “cleaved PARP positive nuclei fraction” value (CBRC014) was 255%. The “cleaved PARP positive nuclei fraction” value (CBRC016) was 82.3%, the “cleaved PARP positive nuclei fraction” value (CBRC017) was 355% and the “cleaved PARP positive nuclei fraction” value (COLO792) was 492%. For the same compound, the “cleaved PARP positive nuclei fraction” value (COLO800) was 527%, the “cleaved PARP positive nuclei fraction” value (COLO829) was 652% and the “cleaved PARP positive nuclei fraction” value (G361) was 672%. For the same compound, the “cleaved PARP positive nuclei fraction” value (IPC-298) was 123%, the “cleaved PARP positive nuclei fraction” value (IST-MEL1) was 91.3% and the “cleaved PARP positive nuclei fraction” value (LB2518-MEL) was 108%. The “cleaved PARP positive nuclei fraction” value (LOXIMVI) was 131%.

In the case of `CC1(C)CCC(c2ccc(Cl)cc2)=C(CN2CCN(c3ccc(C(=O)NS(=O)(=O)c4ccc(N[C@H](CCN5CCOCC5)CSc5ccccc5)c(S(=O)(=O)C(F)(F)F)c4)cc3)CC2)C1` + O=C(O)C(=O)Nc1sc2c(c1C(=O)O)CCNC2 [TCS401] (first compound 0.4 µM, partner dose 1.66667 µM), the “cleaved PARP positive nuclei fraction” value (501Mel) is reported as 237%, the “cleaved PARP positive nuclei fraction” value (A101D) is reported as 20.5% and the “cleaved PARP positive nuclei fraction” value (A2058) is reported as 168%. For the same compound, the “cleaved PARP positive nuclei fraction” value (C32) was 129%, the “cleaved PARP positive nuclei fraction” value (CBRC008) was 150% and the “cleaved PARP positive nuclei fraction” value (CBRC014) was 575%. The “cleaved PARP positive nuclei fraction” value (CBRC016) was 361%, the “cleaved PARP positive nuclei fraction” value (CBRC017) was 263% and the “cleaved PARP positive nuclei fraction” value (COLO792) was 419%. The “cleaved PARP positive nuclei fraction” value (COLO800) was 104%, the “cleaved PARP positive nuclei fraction” value (COLO829) was 104% and the “cleaved PARP positive nuclei fraction” value (G361) was 159%. For the same compound, the “cleaved PARP positive nuclei fraction” value (IPC-298) was 84.9%, the “cleaved PARP positive nuclei fraction” value (IST-MEL1) was 153% and the “cleaved PARP positive nuclei fraction” value (LB2518-MEL) was 223%. For the same compound, the “cleaved PARP positive nuclei fraction” value (LOXIMVI) was 96.4%.

`CCCCCCCCc1ccc(CCC(N)(CO)CO)cc1` [fingolimod] + Cc1cc([N+](=O)[O-])ccc1NS(=O)(=O)c1cc(Cl)ccc1Cl [FH535] (first compound 2 µM, partner dose 1 µM) was tested, and the “cleaved PARP positive nuclei fraction” value (501Mel) was 140%, the “cleaved PARP positive nuclei fraction” value (A101D) was 45.2% and the “cleaved PARP positive nuclei fraction” value (A2058) was 213%. The “cleaved PARP positive nuclei fraction” value (C32) was 100%, the “cleaved PARP positive nuclei fraction” value (CBRC008) was 203% and the “cleaved PARP positive nuclei fraction” value (CBRC014) was 135%. The “cleaved PARP positive nuclei fraction” value (CBRC016) was 1770%, the “cleaved PARP positive nuclei fraction” value (CBRC017) was 382% and the “cleaved PARP positive nuclei fraction” value (COLO792) was 75%. For the same compound, the “cleaved PARP positive nuclei fraction” value (COLO800) was 63.8%, the “cleaved PARP positive nuclei fraction” value (COLO829) was 25.7% and the “cleaved PARP positive nuclei fraction” value (G361) was 93.8%. For the same compound, the “cleaved PARP positive nuclei fraction” value (IPC-298) was 49.1%, the “cleaved PARP positive nuclei fraction” value (IST-MEL1) was 172% and the “cleaved PARP positive nuclei fraction” value (LB2518-MEL) was 69%. For the same compound, the “cleaved PARP positive nuclei fraction” value (LOXIMVI) was 98.1%.

`COc1ccc(C2=N[C@@H](c3ccc(Cl)cc3)[C@@H](c3ccc(Cl)cc3)N2C(=O)N2CCNC(=O)C2)c(OC(C)C)c1` [Nutlin-3] + COc1cc(N2CCC(N3CCN(C)CC3)CC2)ccc1Nc1ncc(Cl)c(Nc2ccccc2S(=O)(=O)C(C)C)n1 [NVP-TAE684] (first compound 0.1 µM, partner dose 0.08 µM) was tested, and the “cleaved PARP positive nuclei fraction” value (501Mel) was 74.1%, the “cleaved PARP positive nuclei fraction” value (A101D) was 23% and the “cleaved PARP positive nuclei fraction” value (A2058) was 82.5%. The “cleaved PARP positive nuclei fraction” value (C32) was 82.7%, the “cleaved PARP positive nuclei fraction” value (CBRC008) was 154% and the “cleaved PARP positive nuclei fraction” value (CBRC014) was 102%. The “cleaved PARP positive nuclei fraction” value (CBRC016) was 54.4%, the “cleaved PARP positive nuclei fraction” value (CBRC017) was 75.5% and the “cleaved PARP positive nuclei fraction” value (COLO792) was 65.5%. For the same compound, the “cleaved PARP positive nuclei fraction” value (COLO800) was 142%, the “cleaved PARP positive nuclei fraction” value (COLO829) was 234% and the “cleaved PARP positive nuclei fraction” value (G361) was 48.5%. The “cleaved PARP positive nuclei fraction” value (IPC-298) was 97.5%, the “cleaved PARP positive nuclei fraction” value (IST-MEL1) was 88.2% and the “cleaved PARP positive nuclei fraction” value (LB2518-MEL) was 69.5%. For the same compound, the “cleaved PARP positive nuclei fraction” value (LOXIMVI) was 77.5%.

In the case of `Cn1sc(=O)n(Cc2ccccc2)c1=O` + COc1ccc(COc2ccc(Cc3cnc(N)nc3N)cc2OC)cc1 [GW2580] (first compound 0.4 µM, partner dose 1 µM), the “cleaved PARP positive nuclei fraction” value (501Mel) is reported as 138%, the “cleaved PARP positive nuclei fraction” value (A101D) is reported as 16.7% and the “cleaved PARP positive nuclei fraction” value (A2058) is reported as 84.7%. For the same compound, the “cleaved PARP positive nuclei fraction” value (C32) was 96.6%, the “cleaved PARP positive nuclei fraction” value (CBRC008) was 35.1% and the “cleaved PARP positive nuclei fraction” value (CBRC014) was 87.8%. For the same compound, the “cleaved PARP positive nuclei fraction” value (CBRC016) was 51%, the “cleaved PARP positive nuclei fraction” value (CBRC017) was 57.4% and the “cleaved PARP positive nuclei fraction” value (COLO792) was 88.6%. For the same compound, the “cleaved PARP positive nuclei fraction” value (COLO800) was 166%, the “cleaved PARP positive nuclei fraction” value (COLO829) was 237% and the “cleaved PARP positive nuclei fraction” value (G361) was 29.9%. For the same compound, the “cleaved PARP positive nuclei fraction” value (IPC-298) was 91.1%, the “cleaved PARP positive nuclei fraction” value (IST-MEL1) was 50.4% and the “cleaved PARP positive nuclei fraction” value (LB2518-MEL) was 71.7%. The “cleaved PARP positive nuclei fraction” value (LOXIMVI) was 199%.

In the case of `COc1ccc(C2=N[C@@H](c3ccc(Cl)cc3)[C@@H](c3ccc(Cl)cc3)N2C(=O)N2CCNC(=O)C2)c(OC(C)C)c1` [Nutlin-3] + O=C(O)C(=O)Nc1sc2c(c1C(=O)O)CCNC2 [TCS401] (first compound 0.1 µM, partner dose 1.66667 µM), the “cleaved PARP positive nuclei fraction” value (501Mel) is reported as 36.6%, the “cleaved PARP positive nuclei fraction” value (A101D) is reported as 31.4% and the “cleaved PARP positive nuclei fraction” value (A2058) is reported as 81%. For the same compound, the “cleaved PARP positive nuclei fraction” value (C32) was 233%, the “cleaved PARP positive nuclei fraction” value (CBRC008) was 123% and the “cleaved PARP positive nuclei fraction” value (CBRC014) was 79.6%. The “cleaved PARP positive nuclei fraction” value (CBRC016) was 70.9%, the “cleaved PARP positive nuclei fraction” value (CBRC017) was 91.5% and the “cleaved PARP positive nuclei fraction” value (COLO792) was 53.2%. For the same compound, the “cleaved PARP positive nuclei fraction” value (COLO800) was 98%, the “cleaved PARP positive nuclei fraction” value (COLO829) was 45.8% and the “cleaved PARP positive nuclei fraction” value (G361) was 145%. For the same compound, the “cleaved PARP positive nuclei fraction” value (IPC-298) was 222%, the “cleaved PARP positive nuclei fraction” value (IST-MEL1) was 34.9% and the “cleaved PARP positive nuclei fraction” value (LB2518-MEL) was 21.1%. For the same compound, the “cleaved PARP positive nuclei fraction” value (LOXIMVI) was 77.7%.
